# “And” between values parts separate entries of the source, which are not always exact repeats. Equal values may be shown once. Further values from the same series stand in other lists.
# Key:
# [1] = TMS crossover study, pharmacokinetic analysis; type: in vivo, human; settings: individual subjects
# Protocol: A randomized, double-blind, placebo-controlled, transcranial magnetic stimulation (TMS) crossover study investigated the safety, tolerability, pharmacokinetics (PK), and pharmacodynamics (PD) of single doses of Compound A in healthy right-handed male subjects.
# Twenty healthy right-handed male subjects were enrolled and randomized in a blinded fashion to receive a single oral dose of 20 mg Compound A or placebo (1:1 randomization ratio) on Day 1, then were crossed over to receive a single dose of the other treatment on Day 7.
# Subjects were screened within 27 days prior to entering the study on Day 1. For Period 1, subjects were admitted to the study unit and dosed on Day 1, and discharged on Day 2. For Period 2, following a washout of 6 days, the same subjects were again admitted to the study unit and dosed on Day 7, and discharged on Day 8. All subjects returned to the clinical unit for an outpatient visit on Day 14, and received a follow-up telephone call on Day 37.
# Subjects were dosed in a fed state, but the timing of dosing relative to meals was changed during the study, and varied between a high fat or standard meal eaten either 2 h or 30 minutes prior to dosing, and a high fat or standard meal eaten 1 h or 2.5 h after dosing.
# The PK parameters for this study were summarized in two ways. Firstly, PK parameters were calculated where possible using the PK samples collected during each 24 h sampling period for Period 1 and Period 2 separately. Secondly, PK parameters were determined using samples beyond the 24 h sampling period (i.e., from Day 7/8 and/or Day 14). For subjects who received Compound A in the first period, PK samples taken prior to placebo treatment provided additional PK timepoints at >24 h. For subjects who received Compound A in the second period, there was no >24 h PK timepoint until a Day 14 PK sample was added. […] The full PK profile data set consists of the 16 subjects for whom PK samples were taken at >24 h post-dose. For discussion of the PK parameters below, the full PK profile data set was generally used, because it allowed more accurate estimation of PK parameters.
# Initially, subjects were dosed 2 hours after a high fat meal with a relatively high fat lunch provided 1 hour after dosing. After blinded review of the PK profiles in the initial 8 subjects, the fat content of the lunch was reduced in an attempt to reduce the time to Tmax, so that the Cmax would fall within the timeframe of TMS measurements. In addition, the timing of the meal relative to dose was changed from 2 hours prior, to 30 minutes prior to dose and subsequently the fat content of the breakfast was reduced. All these changes were made in attempts to provide higher plasma levels during the TMS assessment periods. The timing and type of meal for each subject is specified in Table 13. […] As such the PK data is presented without categorization according to meal content, or relative timing of the meal.
# [2] = Open-label randomized two-period fed/fasted crossover study, plasma PK; type: in vivo, human; settings: fed, 20 mg oral, 3.0 h, Maximum
# Description: The study consisted of two Treatment Periods, Period 1 and Period 2. Each Treatment Period consisted of 7 days, with the dosing of Compound A occurring on Day 1. The two treatment periods were separated by a washout period of 10 days. The subjects were randomized into two groups. During Treatment Period 1, one group received an oral dose of Compound A while fasted and the other group received an oral dose of Compound A when fed. The group which fasted in Treatment Period 1 was fed in Treatment Period 2 and vice versa.
# On Day 1 of each Treatment Period, each subject orally received 20 mg of Compound A (4 capsules with 5 mg of Compound A in each capsule).
# During the fed period, following an overnight fast of at least 10 hours, a standard high fat, high calorie breakfast was given as per FDA guidance; the breakfast was given 30 minutes prior to the scheduled dosing time, and was completed 10 minutes before dosing. A representative breakfast included 2 slices of buttered toast, 2 fried eggs, 2 strips of bacon, 4 oz. of hash brown potatoes, and 8 oz. of whole milk.
# During the fasted period, dosing occurred after an overnight fast of at least 10 hours. No food was allowed for 4 hours post-dose in either the fed or fasted period. Water was allowed as desired except for one hour before and after dosing. […]
structure (smiles),measurement,setting,value
"Cc1cc(N2CCc3cc(F)ccc3C2)cc(C)c1NC(=O)CC(C)(C)C [Compound A, N-[4-(6-fluoro-3,4-dihydro-1H-isoquinolin-2-yl)-2,6-dimethylphenyl]-3,3-dimethylbutanamide]",Compound A Plasma Concentration,"[1]; Compound A Treatment Period, 20 mg, 2 h, 5 minutes before TMS",64.2 ng/mL
same,Compound A Plasma Concentration,"[1]; Compound A Treatment Period, 20 mg, 4 h, 5 minutes before TMS",35.7 ng/mL and 6.08 ng/mL and 76.5 ng/mL
same,Compound A Plasma Concentration,"[1]; Compound A Treatment Period, 20 mg, 6 h, 5 minutes before TMS",32.8 ng/mL
same,Compound A Plasma Concentration,"[1]; Placebo Treatment Period (carry-over), 2 h",3.11 ng/mL and 6.05 ng/mL
same,Compound A Plasma Concentration,"[1]; Placebo Treatment Period (carry-over), 4 h",2.77 ng/mL and 7 ng/mL
same,Compound A Plasma Concentration,"[1]; Placebo Treatment Period (carry-over), 6 h",2.87 ng/mL
same,Compound A Concentration,[2],104 ng/mL
